From article PMC5381383
These are yes or no findings as the source states them, for the method shown. In cells and extracts the contact can be indirect. Some entries that bind do so weakly or less than the wild type.

The chains behind the UniProt entries cited, without tags or fusion partners. Residues count along the entry.
UniProt P04150: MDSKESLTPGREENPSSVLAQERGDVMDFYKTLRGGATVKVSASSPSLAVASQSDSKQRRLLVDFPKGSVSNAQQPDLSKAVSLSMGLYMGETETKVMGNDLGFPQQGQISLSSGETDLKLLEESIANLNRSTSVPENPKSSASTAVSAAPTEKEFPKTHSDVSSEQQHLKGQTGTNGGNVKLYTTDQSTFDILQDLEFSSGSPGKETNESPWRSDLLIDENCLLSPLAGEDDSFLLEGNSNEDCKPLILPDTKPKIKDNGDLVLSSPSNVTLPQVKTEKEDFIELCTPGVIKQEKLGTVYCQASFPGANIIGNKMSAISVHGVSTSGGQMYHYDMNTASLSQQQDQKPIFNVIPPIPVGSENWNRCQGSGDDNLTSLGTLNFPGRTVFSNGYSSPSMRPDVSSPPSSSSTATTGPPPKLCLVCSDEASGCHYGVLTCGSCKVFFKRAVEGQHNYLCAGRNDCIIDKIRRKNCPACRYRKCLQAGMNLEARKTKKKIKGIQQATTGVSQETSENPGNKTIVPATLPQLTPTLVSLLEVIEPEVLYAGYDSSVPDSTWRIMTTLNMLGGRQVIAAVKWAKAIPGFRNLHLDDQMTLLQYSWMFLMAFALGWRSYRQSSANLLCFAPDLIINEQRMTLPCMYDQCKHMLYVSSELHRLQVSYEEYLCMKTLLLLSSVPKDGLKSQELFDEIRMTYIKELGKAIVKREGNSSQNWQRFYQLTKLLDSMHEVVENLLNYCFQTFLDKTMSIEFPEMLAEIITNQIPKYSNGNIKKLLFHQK
UniProt P35869, residues 11-848: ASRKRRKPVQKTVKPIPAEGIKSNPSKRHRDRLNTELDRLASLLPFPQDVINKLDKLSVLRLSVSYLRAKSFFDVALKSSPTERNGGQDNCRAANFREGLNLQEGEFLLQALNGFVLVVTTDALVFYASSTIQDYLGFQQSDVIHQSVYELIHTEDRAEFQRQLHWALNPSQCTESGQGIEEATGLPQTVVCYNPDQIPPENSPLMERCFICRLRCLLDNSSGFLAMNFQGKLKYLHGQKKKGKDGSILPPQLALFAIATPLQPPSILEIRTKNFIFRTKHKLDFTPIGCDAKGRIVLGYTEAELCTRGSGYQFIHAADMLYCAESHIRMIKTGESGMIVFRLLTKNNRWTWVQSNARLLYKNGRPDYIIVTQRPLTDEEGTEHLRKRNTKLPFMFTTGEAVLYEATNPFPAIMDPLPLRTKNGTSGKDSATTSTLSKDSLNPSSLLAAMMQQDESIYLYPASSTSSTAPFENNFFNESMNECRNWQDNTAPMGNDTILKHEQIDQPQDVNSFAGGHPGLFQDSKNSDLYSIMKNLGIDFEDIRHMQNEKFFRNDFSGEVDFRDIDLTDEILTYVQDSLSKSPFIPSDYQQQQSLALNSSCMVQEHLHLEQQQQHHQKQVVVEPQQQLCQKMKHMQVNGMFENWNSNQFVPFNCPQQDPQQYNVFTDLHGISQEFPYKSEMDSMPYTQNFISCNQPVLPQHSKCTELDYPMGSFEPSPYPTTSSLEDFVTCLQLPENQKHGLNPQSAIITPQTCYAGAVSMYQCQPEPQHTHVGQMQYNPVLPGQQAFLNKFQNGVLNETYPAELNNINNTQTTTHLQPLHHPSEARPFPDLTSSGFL

Target: Glucocorticoid receptor (human) (UniProt P04150)
Assay: co-IP; lysates (RIPA buffer) of ARPE-19 cells transfected with GR expression plasmid, 72 h; precipitated with anti-GR antibody or normal mouse IgG, blotted with anti-AHR or anti-GR antibody; cells untreated or treated with TCDD (30 nM), Dex (100 nM) or TCDD + Dex for 30 min

aryl hydrocarbon receptor (from UniProt P35869 11-848)
binding: binds weakly
